From paper doi:10.1101/2020.10.21.349357
Results are given in words; binding and its absence hold for the method and conditions named. Binding seen in cells or lysates may run through a third protein. Some binding calls cover weakened binding; strength is not graded here. For some of these results: Tags and fused reporters may be left off the sequences shown.

Protein sequences, listed by entry. Tags and fused reporters are not part of them. Lines headed by an entry give the natural chain unless they say otherwise; changes in a name come on top.
UniProt O88522, whole entry: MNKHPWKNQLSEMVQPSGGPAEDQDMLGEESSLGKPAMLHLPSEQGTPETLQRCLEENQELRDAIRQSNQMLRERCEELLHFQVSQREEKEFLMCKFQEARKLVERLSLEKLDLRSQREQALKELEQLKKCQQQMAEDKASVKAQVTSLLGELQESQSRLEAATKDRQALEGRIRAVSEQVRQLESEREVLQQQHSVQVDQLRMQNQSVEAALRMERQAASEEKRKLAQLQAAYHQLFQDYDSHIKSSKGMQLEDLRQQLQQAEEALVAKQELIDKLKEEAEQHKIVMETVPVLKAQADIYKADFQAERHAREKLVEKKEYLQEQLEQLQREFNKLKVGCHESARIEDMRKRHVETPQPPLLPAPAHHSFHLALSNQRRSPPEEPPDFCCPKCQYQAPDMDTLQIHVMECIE
UniProt Q9Y6K9, whole entry: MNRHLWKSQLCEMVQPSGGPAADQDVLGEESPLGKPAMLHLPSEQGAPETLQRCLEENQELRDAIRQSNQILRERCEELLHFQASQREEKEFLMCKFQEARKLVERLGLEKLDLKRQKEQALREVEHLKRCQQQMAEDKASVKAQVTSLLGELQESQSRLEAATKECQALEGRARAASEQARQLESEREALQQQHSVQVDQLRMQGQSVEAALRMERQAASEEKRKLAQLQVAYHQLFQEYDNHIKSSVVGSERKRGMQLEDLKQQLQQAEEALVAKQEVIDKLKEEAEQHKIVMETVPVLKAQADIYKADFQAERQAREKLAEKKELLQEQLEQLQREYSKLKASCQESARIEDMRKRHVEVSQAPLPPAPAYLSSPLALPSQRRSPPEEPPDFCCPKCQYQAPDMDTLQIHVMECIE

Assays:
[1] = target: T1, HA-N4BP1 490-aa cleavage product (truncation mutant) (human) (UniProt O75113); test: co-IP
T1 sequence: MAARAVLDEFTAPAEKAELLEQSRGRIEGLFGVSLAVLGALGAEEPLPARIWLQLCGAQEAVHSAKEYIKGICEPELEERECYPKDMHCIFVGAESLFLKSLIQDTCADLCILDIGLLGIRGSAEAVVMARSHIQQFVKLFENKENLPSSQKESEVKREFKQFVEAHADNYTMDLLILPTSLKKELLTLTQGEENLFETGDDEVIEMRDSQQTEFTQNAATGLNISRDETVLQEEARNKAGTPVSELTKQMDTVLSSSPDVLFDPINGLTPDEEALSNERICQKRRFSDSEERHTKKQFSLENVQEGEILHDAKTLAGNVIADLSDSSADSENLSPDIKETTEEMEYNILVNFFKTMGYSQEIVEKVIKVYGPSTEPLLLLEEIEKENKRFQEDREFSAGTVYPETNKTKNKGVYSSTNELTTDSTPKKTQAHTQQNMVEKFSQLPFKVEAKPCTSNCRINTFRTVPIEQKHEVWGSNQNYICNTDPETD

[2] = target: T2, HA-tagged N4BP1 (full length) (human) (UniProt O75113); test: co-IP
T2 sequence: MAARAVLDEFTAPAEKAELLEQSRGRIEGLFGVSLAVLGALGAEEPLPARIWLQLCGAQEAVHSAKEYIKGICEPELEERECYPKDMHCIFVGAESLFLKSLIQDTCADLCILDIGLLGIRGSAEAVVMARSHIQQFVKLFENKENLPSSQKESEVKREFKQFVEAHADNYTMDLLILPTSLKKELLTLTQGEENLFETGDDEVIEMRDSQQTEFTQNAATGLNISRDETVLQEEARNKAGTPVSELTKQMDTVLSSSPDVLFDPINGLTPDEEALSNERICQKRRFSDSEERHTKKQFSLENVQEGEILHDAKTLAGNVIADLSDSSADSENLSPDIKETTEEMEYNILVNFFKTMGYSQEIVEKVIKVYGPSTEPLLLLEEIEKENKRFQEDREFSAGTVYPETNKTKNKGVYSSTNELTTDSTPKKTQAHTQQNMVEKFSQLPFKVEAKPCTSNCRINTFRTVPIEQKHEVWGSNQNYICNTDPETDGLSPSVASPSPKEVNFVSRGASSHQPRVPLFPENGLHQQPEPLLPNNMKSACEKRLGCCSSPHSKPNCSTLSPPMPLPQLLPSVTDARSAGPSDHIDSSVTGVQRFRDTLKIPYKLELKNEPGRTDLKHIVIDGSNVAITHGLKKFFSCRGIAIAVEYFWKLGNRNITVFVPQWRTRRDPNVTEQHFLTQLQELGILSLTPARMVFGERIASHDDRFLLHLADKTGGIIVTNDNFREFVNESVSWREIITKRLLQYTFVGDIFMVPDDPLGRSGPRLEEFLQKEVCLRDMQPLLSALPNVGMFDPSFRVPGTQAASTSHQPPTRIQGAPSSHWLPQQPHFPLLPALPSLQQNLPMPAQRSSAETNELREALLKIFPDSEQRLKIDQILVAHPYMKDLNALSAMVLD

[3] = target: T3, HA-N4BP1 424-aa cleavage product (truncation mutant) (human) (UniProt O75113); test: co-IP
T3 sequence: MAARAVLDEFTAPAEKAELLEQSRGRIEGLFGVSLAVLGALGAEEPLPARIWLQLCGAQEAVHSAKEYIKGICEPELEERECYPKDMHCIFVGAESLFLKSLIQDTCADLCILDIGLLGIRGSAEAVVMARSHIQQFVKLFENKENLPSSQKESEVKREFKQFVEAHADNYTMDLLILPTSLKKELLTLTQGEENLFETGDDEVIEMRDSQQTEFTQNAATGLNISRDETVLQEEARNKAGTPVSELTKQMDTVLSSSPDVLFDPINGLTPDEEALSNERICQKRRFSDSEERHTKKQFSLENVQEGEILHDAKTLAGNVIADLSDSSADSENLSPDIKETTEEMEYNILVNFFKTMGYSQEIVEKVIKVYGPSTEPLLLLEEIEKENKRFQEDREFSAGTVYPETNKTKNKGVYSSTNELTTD

[4] = target: endogenous NEMO of mouse peritoneal macrophages (mouse (endogenous in peritoneal macrophages)) (UniProt O88522); test: cross-linking

| Substance | binding [1] | binding [2] | binding [3] | binding [4] |
| --- | --- | --- | --- | --- |
| Flag-tagged NEMO (from UniProt Q9Y6K9 1-419) | binds | binds | binds | – |
| endogenous NEMO of mouse peritoneal macrophages (from UniProt O88522 1-412) | – | – | – | binds |
